{"source": "paper PMC4507008", "binders": {"B1": {"name": "[35S]methionine-labelled full-length SCL15 protein (protein, UniProt O23210 1-486)", "chain": "MKIPASSPQDTTNNNNNTNSTDSNHLSMDEHVMRSMDWDSIMKELELDDDSAPNSLKTGFTTTTTDSTILPLYAVDSNLPGFPDQIQPSDFESSSDVYPGQNQTTGYGFNSLDSVDNGGFDFIEDLIRVVDCVESDELQLAQVVLSRLNQRLRSPAGRPLQRAAFYFKEALGSFLTGSNRNPIRLSSWSEIVQRIRAIKEYSGISPIPLFSHFTANQAILDSLSSQSSSPFVHVVDFEIGFGGQYASLMREITEKSVSGGFLRVTAVVAEECAVETRLVKENLTQFAAEMKIRFQIEFVLMKTFEMLSFKAIRFVEGERTVVLISPAIFRRLSGITDFVNNLRRVSPKVVVFVDSEGWTEIAGSGSFRREFVSALEFYTMVLESLDAAAPPGDLVKKIVEAFVLRPKISAAVETAADRRHTGEMTWREAFCAAGMRPIQLSQFADFQAECLLEKAQVRGFHVAKRQGELVLCWHGRALVATSAWRF", "modifications": "[35S]methionine-labelled"}}, "target": "GST alone", "test": "pull-down; GST or GST-HDA19 incubated with [35S]Met-labelled translation mixture in bead-binding buffer (50 mM K-phosphate pH 7.6, 450 mM KCl, 10 mM MgCl2, 10% glycerol, 1% Triton X-100, 1% BSA) 1 h at room temperature, then glutathione-Sepharose beads 1 h at 4 °C; SDS-PAGE and fluorography; only the target purified", "note": "Results are given in words; binding and its absence hold for the method and conditions named. Binding seen in cells or lysates may run through a third protein.", "data": [{"binder": "B1", "values": [{"measurement": "binding", "value": "no binding"}]}]}
